Our source for the binding values is article PMC10781740.

Amino acid sequences for entries named in this document (tags omitted). A change or cut given only in a name is not applied to a line headed by its entry.
UniProt Q9Y6K9: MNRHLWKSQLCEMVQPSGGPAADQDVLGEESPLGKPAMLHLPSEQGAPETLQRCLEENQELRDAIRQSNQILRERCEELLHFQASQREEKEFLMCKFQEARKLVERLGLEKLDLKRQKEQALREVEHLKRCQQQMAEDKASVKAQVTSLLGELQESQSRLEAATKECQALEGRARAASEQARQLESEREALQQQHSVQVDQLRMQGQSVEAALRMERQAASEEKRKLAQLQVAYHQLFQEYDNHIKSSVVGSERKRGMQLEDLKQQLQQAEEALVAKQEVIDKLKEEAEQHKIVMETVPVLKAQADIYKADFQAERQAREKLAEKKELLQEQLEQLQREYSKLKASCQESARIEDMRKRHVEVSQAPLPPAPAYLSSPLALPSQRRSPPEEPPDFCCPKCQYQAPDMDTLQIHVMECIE
UniProt Q96EP0: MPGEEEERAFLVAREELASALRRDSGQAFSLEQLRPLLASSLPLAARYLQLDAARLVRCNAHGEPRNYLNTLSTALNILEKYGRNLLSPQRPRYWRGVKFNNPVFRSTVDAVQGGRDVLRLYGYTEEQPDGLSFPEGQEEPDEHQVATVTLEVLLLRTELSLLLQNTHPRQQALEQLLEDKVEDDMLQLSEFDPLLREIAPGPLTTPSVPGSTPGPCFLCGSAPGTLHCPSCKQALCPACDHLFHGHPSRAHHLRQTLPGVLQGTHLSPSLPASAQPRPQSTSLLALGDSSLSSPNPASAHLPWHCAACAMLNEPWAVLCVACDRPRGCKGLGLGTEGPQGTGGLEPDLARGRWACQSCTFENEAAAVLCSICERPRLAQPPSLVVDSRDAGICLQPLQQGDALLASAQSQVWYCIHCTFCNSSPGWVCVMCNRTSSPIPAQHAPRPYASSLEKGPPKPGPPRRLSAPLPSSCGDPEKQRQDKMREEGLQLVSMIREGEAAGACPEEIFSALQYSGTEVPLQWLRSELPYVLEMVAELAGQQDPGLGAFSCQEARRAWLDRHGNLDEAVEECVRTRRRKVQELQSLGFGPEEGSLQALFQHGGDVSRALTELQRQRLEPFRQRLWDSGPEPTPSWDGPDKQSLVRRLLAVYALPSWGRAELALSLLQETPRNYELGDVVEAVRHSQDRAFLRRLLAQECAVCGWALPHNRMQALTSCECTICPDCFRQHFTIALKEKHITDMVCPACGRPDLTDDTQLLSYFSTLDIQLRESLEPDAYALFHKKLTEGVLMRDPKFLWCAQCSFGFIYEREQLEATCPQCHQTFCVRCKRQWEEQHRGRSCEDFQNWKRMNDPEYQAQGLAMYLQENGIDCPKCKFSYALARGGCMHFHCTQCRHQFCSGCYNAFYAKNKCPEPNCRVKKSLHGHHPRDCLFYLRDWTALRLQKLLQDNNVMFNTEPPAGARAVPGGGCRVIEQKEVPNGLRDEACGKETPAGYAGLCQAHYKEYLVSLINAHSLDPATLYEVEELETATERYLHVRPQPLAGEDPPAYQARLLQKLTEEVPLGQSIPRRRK

No constants are given. Whether binding was seen depends on the method and setting. Binding seen in cells or lysates may run through a third protein. Some entries that bind do so weakly or less than the wild type.

For experiment [1], the target named is tandem-affinity purification (TAP)-tagged NEMO (UniProt Q9Y6K9). Kind of experiment: co-IP; Flag-M2 beads on lysates of A549 TAP-NEMO, TAP-HOIP-WT or TAP-HOIP-C885S rescue cells; cells primed with 100 U/mL IFNα for 24 h, mock or infected with SeV 1:300 (3 h p.i. for TAP-NEMO; indicated times for TAP-HOIP); 100 mM NaCl, 40 mM Tris-HCl pH 7.5, 1 mM CaCl2, 1 mM MgCl2, with 1% Triton X-100 and 0.1% SDS for the sonicated pellet; 16 h at 4 °C; Western blot.

Experiment [2] has the same target. The experiment can be described thus: co-IP; as a1, Flag-M2 IP of TAP-NEMO from A549 TAP-NEMO cells at 6 h after SeV infection; Western blot.
The target of experiment [3] is TAP-HOIP-C885S (UniProt Q96EP0). The experiment can be described thus: co-IP; Flag-M2 beads on lysates of A549 TAP-NEMO, TAP-HOIP-WT or TAP-HOIP-C885S rescue cells; cells primed with 100 U/mL IFNα for 24 h, mock or infected with SeV 1:300 (3 h p.i. for TAP-NEMO; indicated times for TAP-HOIP); 100 mM NaCl, 40 mM Tris-HCl pH 7.5, 1 mM CaCl2, 1 mM MgCl2, with 1% Triton X-100 and 0.1% SDS for the sonicated pellet; 16 h at 4 °C; Western blot.

The target of experiment [4] is tandem-affinity purification (TAP)-tagged HOIP (UniProt Q96EP0). The description is as above.

B1: Shank-associated RH domain-interacting protein (SHARPIN) (protein, UniProt Q9H0F6 1-387)
chain: MAPPAGGAAAAASDLGSAAVLLAVHAAVRPLGAGPDAEAQLRRLQLSADPERPGRFRLELLGAGPGAVNLEWPLESVSYTIRGPTQHELQPPPGGPGTLSLHFLNPQEAQRWAVLVRGATVEGQNGSKSNSPPALGPEACPVSLPSPPEASTLKGPPPEADLPRSPGNLTEREELAGSLARAIAGGDEKGAAQVAAVLAQHRVALSVQLQEACFPPGPIRLQVTLEDAASAASAASSAHVALQVHPHCTVAALQEQVFSELGFPPAVQRWVIGRCLCVPERSLASYGVRQDGDPAFLYLLSAPREAPATGPSPQHPQKMDGELGRLFPPSLGLPPGPQPAASSLPSPLQPSWSCPSCTFINAPDRPGCEMCSTQRPCTWDPLAAAST
For the molecule B1, in experiment [1], the binding entry was “binds”.

B2: TBK1 (enzyme, UniProt Q9UHD2 1-729)
chain: MQSTSNHLWLLSDILGQGATANVFRGRHKKTGDLFAIKVFNNISFLRPVDVQMREFEVLKKLNHKNIVKLFAIEEETTTRHKVLIMEFCPCGSLYTVLEEPSNAYGLPESEFLIVLRDVVGGMNHLRENGIVHRDIKPGNIMRVIGEDGQSVYKLTDFGAARELEDDEQFVSLYGTEEYLHPDMYERAVLRKDHQKKYGATVDLWSIGVTFYHAATGSLPFRPFEGPRRNKEVMYKIITGKPSGAISGVQKAENGPIDWSGDMPVSCSLSRGLQVLLTPVLANILEADQEKCWGFDQFFAETSDILHRMVIHVFSLQQMTAHKIYIHSYNTATIFHELVYKQTKIISSNQELIYEGRRLVLEPGRLAQHFPKTTEENPIFVVSREPLNTIGLIYEKISLPKVHPRYDLDGDASMAKAITGVVCYACRIASTLLLYQELMRKGIRWLIELIKDDYNETVHKKTEVVITLDFCIRNIEKTVKVYEKLMKINLEAAELGEISDIHTKLLRLSSSQGTIETSLQDIDSRLSPGGSLADAWAHQEGTHPKDRNVEKLQVLLNCMTEIYYQFKKDKAERRLAYNEEQIHKFDKQKLYYHATKAMTHFTDECVKKYEAFLNKSEEWIRKMLHLRKQLLSLTNQCFDIEEEVSKYQEYTNELQETLPQKMFTASSGIKHTMTPIYPSSNTLVEMTLGMKKLKEEMEGVVKELAENNHILERFGSLTMDGGLRNVDCL
As to B2, the binding result in experiment [2], in experiment [3], in experiment [1] and in experiment [4] was “binds” in each case.
